From US20100035945A1, “SMALL MOLECULE INHIBITORS OF BACTERIAL DAM DNA METHYLTRANSFERASES” (priority 2004, published 2010) come the findings set out here.

Where a chain is given by its changes, count along the chain named. For at least one entry, the source does not settle the construct or the ends of the probe. For some assays here: The comparison behind a weaker result is the experiment's own reference, which may not be listed here. Protein sequences can lack the tags named with them.

Assay in all cases: activity assay
In data set [1] the target is T1, EcoDam DNA adenine methyltransferase (Escherichia coli) (UniProt P0AEE8).
T1 sequence: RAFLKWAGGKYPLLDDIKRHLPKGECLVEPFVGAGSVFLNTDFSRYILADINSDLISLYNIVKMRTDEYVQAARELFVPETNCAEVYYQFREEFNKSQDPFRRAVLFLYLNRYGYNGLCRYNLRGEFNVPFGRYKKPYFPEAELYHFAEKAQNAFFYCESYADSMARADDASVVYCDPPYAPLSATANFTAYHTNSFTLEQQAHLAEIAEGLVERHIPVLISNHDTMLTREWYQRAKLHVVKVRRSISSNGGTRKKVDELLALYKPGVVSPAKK
Particulars: purified recombinant protein, protein details: His tag.

The target of data set [2] is T2, EcoDam K9A (Escherichia coli) (UniProt P0AEE8).
T2 sequence: T1 sequence with K5A
The note with it: N6-methyl-Ade in GATC of bottom strand (GMTC); methylation; purified recombinant protein.

Data set [3] deals with T3, EcoDam P134A (Escherichia coli) (UniProt P0AEE8).
T3 sequence: T1 sequence with P130A
Particulars: N6-methyl-Ade in GATC of bottom strand (GMTC); normal activity; purified recombinant protein.

In data set [4] the target is T4, EcoDam P134G (Escherichia coli) (UniProt P0AEE8).
T4 sequence: T1 sequence with P130G
Particulars: N6-methyl-Ade in GATC of bottom strand (GMTC); normal activity; purified recombinant protein.

Data set [5] deals with T5, EcoDam R124A (Escherichia coli) (UniProt P0AEE8).
T5 sequence: T1 sequence with R124A
Particulars: N6-methyl-Ade in GATC of bottom strand (GMTC); methylation; purified recombinant protein.

Data set [6] addresses T6, EcoDam Y119A (Escherichia coli) (UniProt P0AEE8).
T6 sequence: T1 sequence with Y115A
The note with it: N6-methyl-Ade in GATC of bottom strand (GMTC); methylation; purified recombinant protein.

Data set [7] deals with T7, EcoDam L122A (Escherichia coli) (UniProt P0AEE8).
T7 sequence: T1 sequence with L118A
The note with it: almost inactive on unmethylated DNA; purified recombinant protein; variant of 20-mer hemimethylated GATC.

On to “GCGACAGTGATCGGCCTGTC (double strand) [20-mer hemimethylated GATC]”, for which the “activity on this sequence” value is “active” in data set [1] (N6-methyl-Ade in GATC of bottom strand (GMTC), single-turnover methylation, near-cognate sites 100-1000 fold slower); “active” in data set [3]; “active” in data set [4]. Besides, in data set [2], the activity on this sequence (% of wild type) turned out to be 60. Besides, the activity on this sequence (fold reduced vs wild type) in data set [5] and in data set [6] was over 100 each time.

For the sequence “GCGACAGTGATCGGCCTGTC (double strand) [20-mer unmethylated GATC]”, the activity on this sequence (fold rate vs hemimethylated) in data set [1] (methylation, variant of 20-mer hemimethylated GATC) is 2. Moreover, the “activity on this sequence” value in data set [7] was “less active”.
